From publication PMC6759994
No constants are given. Whether binding was seen depends on the method and setting. Binding seen in cells or lysates may run through a third protein. These calls come from enrichment with a bait or labelling near it, and not all partners need be listed.

Biological target: RNase J2 with a C-terminal 3x FLAG tag, chromosomally encoded in S. mutans (strain J2F) (Streptococcus mutans UA159)
Assay: affinity purification with mass spectrometry; mid-log S. mutans crosslinked in vivo with formaldehyde; cytoplasmic and membrane fractions; RNase J2-3x FLAG purified on anti-FLAG M2 affinity gel, eluted with 3x FLAG peptide; LC/MS; enrichment against the untagged wild type

| Binder | binding |
| --- | --- |
| RNA helicase (CshA), endogenous in S. mutans (enzyme, UniProt Q8DV90 1-517) MKFTELHLAEDILSAVAKVGFVEPSPIQELTIPLALEGKDVIGQAQTGTGKTAAFGLPTLNKIDVTNNVVQALVIAPTRELAVQSQEELFRFGREKKVKVRSVYGGSSIEKQIKALKSGAHIVVGTPGRLLDLIKRKALKLNHVETLILDEADEMLNMGFLEDIEAIISRVPETRQTLLFSATMPDAIKRIGVKFMKEPEHVKIAAKELTTDLVDQYYIRVKENEKFDTMTRLMDVEQPELSIVFGRTKRRVDELTRGLKLRGYRAEGIHGDLDQGKRLRVLRDFKNDNLDILVATDVAARGLDISGVTHVYNYDIPQDPESYVHRIGRTGRAGKHGQSITFVAPNEMGYLQIIEKLTKKRMKGMKPATAQEAFQASKKVALKKIERDFADEKIRSNFDKFTKDAEKLAAEFSPEELAQYILTLTVQDPEMLPKVEIAREKPLPFKFAGKGKGGNRRREDRRGGRDSRRNHRDGGRREFKRTSNKNRKDFENKSNKRPHRTSSEKKSGFTIRNKGDR | binds |
| Cell division GTPase FtsZ, endogenous in S. mutans (protein, UniProt Q8DVD9 1-434) MAFSFDAASVQGAVIKVIGVGGGGGNAINRMIDEGVAGVEFIAANTDIQALSSSKAETVIQLGPKLTRGLGAGGQPEIGRKAAEESEEALTEALTGADMVFITAGMGGGSGTGAAPVIARIAKGLGSLTVAVVTRPFGFEGSKRGNYAIEGINELRDEVDTLLIISNNNLLEIVDKKTPLLEALSEADNVLRQGVQGITDLITSPGLINLDFADVKTVMASKGNALMGIGIGTGEERVVEAARKAIYSPLLETTIDGAEDVIVNVTGGLDMTLTEAEEASEIVNQAAGHGVNIWLGTSIDDSMKDEIRVTVVATGVRPDKADQVSGIRRQASSYTQPRAQQQAPSSNSAQPNFERRQNFDFDLNESPEMPAAEPQQTQSSSEPQQSAFGDWNLRRENIARPTEGEIDSQLKMSSFSADSDDDDELETPPFFKNR | binds weakly |
